Assay results reported in patent US20110271358A1 (Dana-Farber, published 2011).
Residue numbers refer to the chain shown, from its start. No constants are given. Whether binding was seen depends on the method and setting. Some binding calls cover weakened binding; strength is not graded here.

By UniProt entry, the sequences of proteins in these tests, tags left out. Where a name states a change or a piece, a line headed by the entry shows the natural chain unless it says otherwise.
UniProt Q15116: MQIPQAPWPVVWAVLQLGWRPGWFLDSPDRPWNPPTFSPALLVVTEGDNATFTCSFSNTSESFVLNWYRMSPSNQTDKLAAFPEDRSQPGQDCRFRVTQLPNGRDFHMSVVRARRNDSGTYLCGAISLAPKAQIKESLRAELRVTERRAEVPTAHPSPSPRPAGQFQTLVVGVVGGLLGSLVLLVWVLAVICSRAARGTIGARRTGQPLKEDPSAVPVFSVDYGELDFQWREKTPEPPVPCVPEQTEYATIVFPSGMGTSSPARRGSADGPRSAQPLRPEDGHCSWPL

B1: EH12.2H7 composite, human antibody VH3/VK4 (antibody, V domains shown)
VH: QVQLVQSGHEVKQPGASVKMSCKASGYSFTSSWIHWVKQAPGQGLEWIGYIYPSTGFTEYNQKFKDRATLTADKSTSTAYMELSSLRSEDTAVYYCARWRDSSGYHAMDYWGQGTLVTVSS
VL: DIVLTQSPATLSLSPGQRLTISCRASQSVSTSGYSYMHWYQQKPDQSPKLLIKFGSNLESGIPARFSGSGSGTDFTLTISSLEPEDFAVYYCQHSWEIPYTFGQGTKLEIK
notes: V regions cloned into vectors containing human constant regions (quantified against an IgG1/kappa standard; isotype not expressly stated)
B2: EH12.2H7 composite, human antibody VH4/VK4 (antibody, V domains shown)
VH: B1 VH with K38R
VL: B1 VL
notes: as for B1

How the values were obtained:
[1] = target: T1, human Fc-PD-1 (R&D systems) (human, UniProt Q15116 25-167); assay: competition ELISA on coated human Fc-PD-1; competitor biotinylated EH12.2H7
T1 construct: Bought Fc fusion coated on the ELISA plate; also called human PD-1; not shown: Fc part of the bought fusion protein

[2] = target: T1, human Fc-PD-1 (R&D systems); assay: competition ELISA on coated human Fc-PD-1

Row | Binder | binding [1] | binding [2]
1 | B1 | binds | binds
2 | B2 | binds | binds
